Laboratory results taken from patent US8298176B2, “Flow-induced delivery from a drug mass” (priority 2006, dated 2012).
At least one compound was matched to its structure with a doubt left.

Assay: Extraction of solid triamcinolone acetonide pellets by a continuous stream of vehicle (expected)
Type: physicochemical
Details: solid pellets exposed to a continuous stream of vehicle such as Ringer's solution

CC1(C)O[C@@H]2C[C@H]3[C@@H]4CCC5=CC(=O)C=C[C@]5(C)[C@@]4(F)[C@@H](O)C[C@]3(C)[C@]2(C(=O)CO)O1 [triamcinolone acetonide]
expected concentration of extracted triamcinolone acetonide in solution: ≤ 40 µM
